# From article PMC11127164
# Protein sequences, listed by entry. Tags and fused reporters are not part of them. Residues count along the entry.
# UniProt Q9NZ52, residues 1-316: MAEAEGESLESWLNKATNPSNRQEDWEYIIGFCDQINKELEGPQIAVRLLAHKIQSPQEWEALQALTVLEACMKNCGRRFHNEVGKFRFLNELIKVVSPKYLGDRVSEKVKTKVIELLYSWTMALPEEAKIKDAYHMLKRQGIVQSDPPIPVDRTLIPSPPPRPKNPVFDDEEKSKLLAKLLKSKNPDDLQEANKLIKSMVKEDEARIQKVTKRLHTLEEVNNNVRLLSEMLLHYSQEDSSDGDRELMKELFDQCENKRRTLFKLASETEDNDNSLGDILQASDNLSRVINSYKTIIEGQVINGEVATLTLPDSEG
# UniProt P18085: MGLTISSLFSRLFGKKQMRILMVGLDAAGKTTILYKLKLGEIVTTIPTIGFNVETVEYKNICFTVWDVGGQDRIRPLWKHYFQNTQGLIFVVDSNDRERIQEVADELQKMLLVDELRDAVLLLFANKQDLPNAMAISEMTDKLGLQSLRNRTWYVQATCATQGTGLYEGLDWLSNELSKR
# UniProt P84085: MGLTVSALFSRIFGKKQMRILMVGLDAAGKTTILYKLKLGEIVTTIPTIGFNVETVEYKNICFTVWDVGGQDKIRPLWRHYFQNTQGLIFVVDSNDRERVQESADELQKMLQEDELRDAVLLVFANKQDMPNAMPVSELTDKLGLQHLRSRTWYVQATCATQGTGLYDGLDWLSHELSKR
# UniProt P62330: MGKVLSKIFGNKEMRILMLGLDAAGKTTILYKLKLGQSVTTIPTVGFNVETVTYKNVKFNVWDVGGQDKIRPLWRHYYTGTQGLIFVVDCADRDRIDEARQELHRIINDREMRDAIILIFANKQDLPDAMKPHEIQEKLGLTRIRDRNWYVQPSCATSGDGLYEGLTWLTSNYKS
# UniProt P84077: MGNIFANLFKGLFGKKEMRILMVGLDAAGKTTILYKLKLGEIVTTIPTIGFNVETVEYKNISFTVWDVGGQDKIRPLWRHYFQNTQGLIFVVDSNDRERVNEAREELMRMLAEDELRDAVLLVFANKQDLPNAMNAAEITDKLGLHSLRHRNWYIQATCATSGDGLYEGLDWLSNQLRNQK
# Results are given in words; binding and its absence hold for the method and conditions named. Binding seen in cells or lysates may run through a third protein. Some binding calls cover weakened binding; strength is not graded here.
# Target: glutathione S-transferase-fused Golgi-localized γ-adaptin ear-containing, ARF-binding protein 3 (1–316) (UniProt Q9NZ52)
# Assay: pull-down; GST-GGA3(1–316)-coated Sepharose beads incubated with lysates of GIST-T1 or PC-9 cells at 4 °C for 1 h, washed once, immunoblot for ARFs; cells untreated or treated with 1 μM M-COPA or 1 μM BFA for 4 h (GIST-T1) or 200 nM M-COPA for 8 h (PC-9); only the target purified
row,binding,Substance
1,binds,ADP-ribosylation factor 4 (from UniProt P18085 1-180)
2,binds,ADP-ribosylation factor 5 (from UniProt P84085 1-180)
3,binds,ADP-ribosylation factor 6 (from UniProt P62330 1-175)
4,binds,ADP-ribosylation factor 1 (from UniProt P84077 1-181)
